Source: patent publication US20230405157A1, “MELANOCORTIN TYPE 2 RECEPTOR (MC2R) TARGETED THERAPEUTICS AND USES THEREOF” (Radionetics Oncology, Inc., priority 2022, published 2023)

The chains behind the UniProt entries cited, without tags or fusion partners.
UniProt Q01718, whole entry: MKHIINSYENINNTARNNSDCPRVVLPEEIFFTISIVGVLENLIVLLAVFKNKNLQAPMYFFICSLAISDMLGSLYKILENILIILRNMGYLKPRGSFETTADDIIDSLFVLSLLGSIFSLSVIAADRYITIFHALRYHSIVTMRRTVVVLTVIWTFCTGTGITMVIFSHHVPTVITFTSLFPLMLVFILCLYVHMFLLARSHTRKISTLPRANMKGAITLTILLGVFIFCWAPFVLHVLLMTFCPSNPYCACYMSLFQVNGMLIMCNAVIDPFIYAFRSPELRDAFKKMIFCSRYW
UniProt Q8TCY5, whole entry partner: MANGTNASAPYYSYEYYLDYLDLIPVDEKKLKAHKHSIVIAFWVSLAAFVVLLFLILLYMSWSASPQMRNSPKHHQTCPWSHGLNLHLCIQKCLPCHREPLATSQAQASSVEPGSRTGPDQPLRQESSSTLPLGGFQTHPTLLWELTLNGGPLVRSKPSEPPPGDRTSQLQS

Biological target: human MC2R (Homo sapiens, UniProt Q01718)
Assay: Inhibition of binding of ACTH in human MC2R-containing membranes (SPA radioligand competition)
Conditions: read-out: hMC2 membrane binding; competition with 0.2 nM [125I]-TYR23]-ACTH (1-39), membranes of CHO-K1 cells expressing hMC2 receptor; tested form: TFA (1:1)

Compound: CCOc1ccc(C(=O)N2CCN(c3ccc(-c4cccnc4OCC)nc3CNCCCOCCOCCOCCOCCNC(=O)[C@@H](CCCCNC(=O)CN3CCN(CC(=O)O)CCN(CC(=O)O)CCN(CC(=O)O)CC3)NC(=O)[C@@H](CCC(=O)O)NC(=O)CCCc3ccc(I)cc3)[C@H](CC)C2)c(C(F)(F)F)n1
- Ki: < 10 nM

Structures were worked out from names or drawings and are uncertain.
